Two molecules from paper PMC11358031 can be followed below.

Sequences of proteins named here, by UniProt entry; tags and fusion partners are left off. Residues count along the entry.
UniProt P37023, residues 22-118: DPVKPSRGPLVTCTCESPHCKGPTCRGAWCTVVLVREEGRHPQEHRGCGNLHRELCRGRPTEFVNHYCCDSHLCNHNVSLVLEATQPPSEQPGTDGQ

The target in this experiment is ALK1-Fc (human ALK1 ectodomain) (human) (UniProt P37023). Nature of the experiment: SPR; ALK1-Fc immobilised on the chip; saturating BMP9 or BMP10 injected first, then a saturating amount of mAb2; two consecutive injections (n = 2); both purified.

These are yes or no findings as the source states them, for the method shown. Some results given as binding are weak or reduced against the parent protein; the word gives no strength.

B1: bone morphogenetic protein-9 (BMP9) (ligand, UniProt Q9UK05 320-429)
chain: SAGAGSHCQKTSLRVNFEDIGWDSWIIAPKEYEAYECKGGCFFPLADDVTPTKHAIVQTLVHLKFPTKVGKACCVPTKLSPISVLYKDDMGVPTLKYHYEGMSVAECGCR
As for B1, the binding entry is on record as “binds”.

B2: BMP10 (ligand, UniProt O95393 317-424)
chain: NAKGNYCKRTPLYIDFKEIGWDSWIIAPPGYEAYECRGVCNYPLAEHLTPTKHAIIQALVHLKNSQKASKACCVPTKLEPISILYLDKGVVTYKFKYEGMAVSECGCR
Turning to B2, the binding entry is on record as “binds”.
